For 1 substance, binding results are on record in article PMC9198586.

Chains of the proteins cited; added tags and fusions are not shown.
UniProt P02340: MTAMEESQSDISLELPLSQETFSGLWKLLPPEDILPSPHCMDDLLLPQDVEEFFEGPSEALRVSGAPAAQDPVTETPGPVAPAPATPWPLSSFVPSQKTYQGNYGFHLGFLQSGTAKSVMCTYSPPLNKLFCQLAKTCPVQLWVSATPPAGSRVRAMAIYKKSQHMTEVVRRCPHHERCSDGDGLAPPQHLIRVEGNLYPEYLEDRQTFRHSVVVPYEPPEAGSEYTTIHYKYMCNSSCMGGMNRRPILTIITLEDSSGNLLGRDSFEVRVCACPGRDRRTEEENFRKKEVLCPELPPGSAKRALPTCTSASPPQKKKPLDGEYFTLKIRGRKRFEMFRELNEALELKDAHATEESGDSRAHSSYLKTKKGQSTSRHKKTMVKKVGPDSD
UniProt P23804: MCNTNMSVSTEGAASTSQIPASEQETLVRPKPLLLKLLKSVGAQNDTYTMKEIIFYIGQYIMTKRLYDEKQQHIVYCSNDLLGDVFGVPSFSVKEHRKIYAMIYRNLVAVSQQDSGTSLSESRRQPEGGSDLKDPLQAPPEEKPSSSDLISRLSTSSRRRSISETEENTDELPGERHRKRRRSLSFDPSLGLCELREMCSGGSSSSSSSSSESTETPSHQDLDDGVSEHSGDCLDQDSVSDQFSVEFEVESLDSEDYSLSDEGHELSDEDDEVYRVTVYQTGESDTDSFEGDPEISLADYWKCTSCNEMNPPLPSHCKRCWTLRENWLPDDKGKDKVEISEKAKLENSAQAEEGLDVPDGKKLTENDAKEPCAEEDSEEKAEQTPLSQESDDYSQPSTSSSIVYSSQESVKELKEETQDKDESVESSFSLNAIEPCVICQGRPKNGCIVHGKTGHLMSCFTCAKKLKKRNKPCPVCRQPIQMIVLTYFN

This experiment deals with p53 (mouse, wild type) (mouse (endogenous in TA3-Sth)) (UniProt P02340). Briefly: co-IP; TA3-Sth mouse tumor cells treated with nutlin; MDM2 in precipitates detected by 4B2 antibody.

No constants are given. Whether binding was seen depends on the method and setting. Binding seen in cells or lysates may run through a third protein.

“MDM2 (mouse) (from UniProt P23804 1-489)”: the binding result is “no binding (condition: cells treated with nutlin)”.
